Results taken from paper PMC7819943, “Rice protein-binding microarrays: a tool to detect cis-acting elements near promoter regions in rice”.
This is one part of the list.

Sequences of proteins named here, by UniProt entry; tags and fusion partners are left off.
UniProt Q0JBA9, entry or part of it: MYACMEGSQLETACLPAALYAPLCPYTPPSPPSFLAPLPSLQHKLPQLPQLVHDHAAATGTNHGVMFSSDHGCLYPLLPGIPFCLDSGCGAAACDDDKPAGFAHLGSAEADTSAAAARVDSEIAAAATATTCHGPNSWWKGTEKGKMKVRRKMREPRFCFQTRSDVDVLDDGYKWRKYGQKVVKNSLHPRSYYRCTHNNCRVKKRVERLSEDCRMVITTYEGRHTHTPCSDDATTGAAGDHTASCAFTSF

Target: OsWRKY34 (Oryza sativa, UniProt Q0JBA9 1-250)
Test: protein-binding microarray (RPBM); PBS, 2% BSA, 51.3 ng/ul salmon testes DNA, 50 uM zinc acetate, 200 nM TF, 25 C, 1 h; high values mean tight binding
Settings: protein: recombinant; tags: N-terminal polyhistidine and DsRed monomer fusion (pET32a); label: CyDye5-dUTP incorporated in the synthesized complementary strand; 3' TTTTT single-stranded linker to array surface; dsDNA, one strand shown
How it was run: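 The binding signal is fluorescence intensity per feature, in arbitrary units, read on an Axon 4000B scanner. Polyhistidine- and DsRed-tagged transcription factors (N-terminal fusions) from E. coli BL21-CodonPlus were purified on Ni–NTA and applied at 200 nM for 1 h at 25 °C to a double-stranded, BSA-blocked custom Agilent array in buffer with 50 µM zinc acetate.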

Sequence | binding signal
CTTCTCTCACCGGCTCTCCGCCATCTTCTCGTCCTGTATGCGGAGTCACCTAGTGCAG | 15400 fluorescence intensity (a.u.)
TCGCCGGGCTTCTCTACGAGTACCTCGTCATCCCGTCCACCGGAGTCACCTAGTGCAG | 8870 fluorescence intensity (a.u.)
GTATCTTCTGTATCTGTAGTTTTTCTCTGCAGTTCAGTTTCGGAGTCACCTAGTGCAG | 8650 fluorescence intensity (a.u.)
GCGCACTTATTTCCGCCGTTAATCTCTCCGCCCAAAGTTACGGAGTCACCTAGTGCAG | 9340 fluorescence intensity (a.u.)
CCGCGACGACCGACCGACCGGGTCCGACCGCACCACCTCGCGGAGTCACCTAGTGCAG | 8960 fluorescence intensity (a.u.)
ATTTTTGACGCCGTTGACTTTTTTTAAATATGTTTGACCGCGGAGTCACCTAGTGCAG | 46900 fluorescence intensity (a.u.)
CCATAAGTCGTCTCTCAGTGTGCAGCAGCAATCCACCATCCGGAGTCACCTAGTGCAG | 8530 fluorescence intensity (a.u.)
TATCTTTGTCACACTCTACTACTACTAGTCTACTAGCACTCGGAGTCACCTAGTGCAG | 8320 fluorescence intensity (a.u.)
CCGCCGCCGCCTCACCACCAGCCGAAGTCCACCGCCCACGCGGAGTCACCTAGTGCAG | 8940 fluorescence intensity (a.u.)
ATAAGTTTCATGTTATTTTTGGCATCTTTACTTTCTACAACGGAGTCACCTAGTGCAG | 8960 fluorescence intensity (a.u.)
AGATTTTGCACAGTTTTATGCTCCAACACGGCAAGTTTCCCGGAGTCACCTAGTGCAG | 8400 fluorescence intensity (a.u.)
TACTTGCACCACCTTCTTCTTCTTCTCTCTCCCTCACACGCGGAGTCACCTAGTGCAG | 8740 fluorescence intensity (a.u.)
ATTATGGACGTCTTAATATTGTCTTCCCGGGCTGGATCACCGGAGTCACCTAGTGCAG | 11000 fluorescence intensity (a.u.)
CCTCTTCCTCTTTTTACTACTCCATCGAGGCATTCAGCGACGGAGTCACCTAGTGCAG | 9000 fluorescence intensity (a.u.)
AACACATTTGAGCAAATTCATCCCTCCTACCTCAAATACTCGGAGTCACCTAGTGCAG | 9260 fluorescence intensity (a.u.)
TCCCGTCTCGGCTCCTTGCGCCATCGTCGACAGGGGAGGGCGGAGTCACCTAGTGCAG | 9340 fluorescence intensity (a.u.)
AGAGAGAGAGGCGTCCATTTCCAGGTGTTTTCAGCTCTGACGGAGTCACCTAGTGCAG | 8650 fluorescence intensity (a.u.)
TCACGTGGCCACTCCTCCTCCTCCGCCTCCGCGTTTGTGACGGAGTCACCTAGTGCAG | 8690 fluorescence intensity (a.u.)
GTATGTGGGTGGTGGTATTTTTTTTATCCTGGTTACGACCCGGAGTCACCTAGTGCAG | 19700 fluorescence intensity (a.u.)
ACGCACAGTGTGACAAGCTCTCGCCATCCAAGAATCCCTCCGGAGTCACCTAGTGCAG | 8770 fluorescence intensity (a.u.)
GCGCGCCGCCTCGTTGCTTTTCTCCTGTTTTTTTTTTTTTCGGAGTCACCTAGTGCAG | 9840 fluorescence intensity (a.u.)

In another format: results already given.
GTATCTTCTGTATCTGTAGTTTTTCTCTGCAGTTCAGTTTCGGAGTCACCTAGTGCAG
  binding signal = 8650 fluorescence intensity (a.u.)
TATCTTTGTCACACTCTACTACTACTAGTCTACTAGCACTCGGAGTCACCTAGTGCAG
  binding signal = 8320 fluorescence intensity (a.u.)
CCGCCGCCGCCTCACCACCAGCCGAAGTCCACCGCCCACGCGGAGTCACCTAGTGCAG
  binding signal = 8940 fluorescence intensity (a.u.)
CCTCTTCCTCTTTTTACTACTCCATCGAGGCATTCAGCGACGGAGTCACCTAGTGCAG
  binding signal = 9000 fluorescence intensity (a.u.)

Following part

Sequence | binding signal
CAACCCTCATATATCCCGTGATCCATTGTTCAGACCTGCCCGGAGTCACCTAGTGCAG | 8810 fluorescence intensity (a.u.)
GGCCATCTGGTTTCCACTTCTCTTACCACCTCAATTCCGCCGGAGTCACCTAGTGCAG | 10500 fluorescence intensity (a.u.)
ACATTAGCATGTTCTCCAGCATACAGTACAGGATCCTCTACGGAGTCACCTAGTGCAG | 8730 fluorescence intensity (a.u.)
GTGAGCTCCGCCTCGATCGATTCCACACCAACCTATTCATCGGAGTCACCTAGTGCAG | 8160 fluorescence intensity (a.u.)
TGTTGGTTTGACCGATCGTATCGGGGTTGGGCGATATACCCGGAGTCACCTAGTGCAG | 8260 fluorescence intensity (a.u.)
GCCACCTCGCCCTGTTCACCGTGCCCGCCAACAACCTCCCCGGAGTCACCTAGTGCAG | 11000 fluorescence intensity (a.u.)
TTTCCGGACTGTTTTCATCCCTATCTACTACTGCTCGAGCCGGAGTCACCTAGTGCAG | 8770 fluorescence intensity (a.u.)
ACTATTTTTCTCTGGTTTCTTTCCTTGATGCGTCTCCTTCCGGAGTCACCTAGTGCAG | 8450 fluorescence intensity (a.u.)
ACTAGCACCCCGACTTTTTTTTTTCTTTCCTTCGCTTCTTCGGAGTCACCTAGTGCAG | 8170 fluorescence intensity (a.u.)
AATACGAAAGTGAACCTGTCCTTATATTTTCTAGTAGTATCGGAGTCACCTAGTGCAG | 8350 fluorescence intensity (a.u.)
CCCAGGTCTCTACGGCCACAACGTAGAATTCTCACCACTACGGAGTCACCTAGTGCAG | 8400 fluorescence intensity (a.u.)
CATCCGTATGATTCGACTTTTTTTTCACGTTGATTTTATACGGAGTCACCTAGTGCAG | 9050 fluorescence intensity (a.u.)
CACAGCCTGACGGTATCACTCACGCACACCAACTGCTCGCCGGAGTCACCTAGTGCAG | 10600 fluorescence intensity (a.u.)
CTCTACTGCAAACTGTTGTTCCTGCTTGCTCTAACACATTCGGAGTCACCTAGTGCAG | 9120 fluorescence intensity (a.u.)
AGTCAAACTACACCTTTTCCTTTCGTGGCTGATTCCCCTACGGAGTCACCTAGTGCAG | 8620 fluorescence intensity (a.u.)
AATTAAATATAGCAGGAGGAGCATGGAGGCATAGGCTTTACGGAGTCACCTAGTGCAG | 9150 fluorescence intensity (a.u.)
CAAAGTTTGTTTCATGCACATTTTTTCTCATGTTAAATTACGGAGTCACCTAGTGCAG | 8590 fluorescence intensity (a.u.)
AGTTGTGGTGGGGTAGTGAGCAATAACATTTTTCATAATTCGGAGTCACCTAGTGCAG | 12000 fluorescence intensity (a.u.)
CGGCCTCGAATTTCGTCTCCTCGCCCACCGCTTGCGCCGACGGAGTCACCTAGTGCAG | 10300 fluorescence intensity (a.u.)
CGCCACCGTCACCGACCGCGCGCGCACGCACGCACACTCCCGGAGTCACCTAGTGCAG | 10500 fluorescence intensity (a.u.)
CTGGGGCTTCTTGCTTCTTGCTCGCTCGCTGCTGTTTTACCGGAGTCACCTAGTGCAG | 14800 fluorescence intensity (a.u.)

Sequence | binding signal
GGAAGCCGAATGGGGAGGGGTAGTACAGTCATTTCATAATCGGAGTCACCTAGTGCAG | 13000 fluorescence intensity (a.u.)
TCCTGTGGTACCCCTGTCGCCGAATCTACGCATCTGCCAACGGAGTCACCTAGTGCAG | 8140 fluorescence intensity (a.u.)
TCATCTGCTTCTCTCTCTCATCTCTCTTCTGCCATTGTTCCGGAGTCACCTAGTGCAG | 10800 fluorescence intensity (a.u.)
TGTTTCAGTTACTCCCTCCCATATCGTTTGACCCCGACTCCGGAGTCACCTAGTGCAG | 9990 fluorescence intensity (a.u.)
GGCTGCACTCCGGTACCAATCCACTTTTCCTTCCACGCTACGGAGTCACCTAGTGCAG | 11900 fluorescence intensity (a.u.)
CAACCACCACCGTGCACGCCACTGACGCCATGGCCGGACGCGGAGTCACCTAGTGCAG | 8270 fluorescence intensity (a.u.)
GCGCGCCGCCATGTCCGCTCCATCCCGGCCGCCACGCCCGCGGAGTCACCTAGTGCAG | 11800 fluorescence intensity (a.u.)
TTTTCATTGTTTACTTACATTGCTGGTGTTCATGTCAATCCGGAGTCACCTAGTGCAG | 8340 fluorescence intensity (a.u.)
GGGTGTGTGCGCATGTGTGTTTGTCGTGTATTAAAAAAAACGGAGTCACCTAGTGCAG | 9130 fluorescence intensity (a.u.)
ATGTGGTCCTCGGTGTTCTCGTTCCCATCTTTCTCTCTCTCGGAGTCACCTAGTGCAG | 14900 fluorescence intensity (a.u.)
TTGGTATTATTCACATCATGACTGATTGACGTTTCTCATACGGAGTCACCTAGTGCAG | 11600 fluorescence intensity (a.u.)
CTTCTGTCATATCACCTTGCCGCTGCTTCTGATCATCTCCCGGAGTCACCTAGTGCAG | 8670 fluorescence intensity (a.u.)
CAGAGTCACCTTCCTTTCATTTCCTTTCTCTTTTCTCTTTCGGAGTCACCTAGTGCAG | 9680 fluorescence intensity (a.u.)
CTAGCTGTGCGCGTAACGTTTTCTTTGCGCTTTTTCTGCTCGGAGTCACCTAGTGCAG | 12200 fluorescence intensity (a.u.)
TCCCCACCGTTGACCGAAGTTGACATCCAAGAATCCAGACCGGAGTCACCTAGTGCAG | 8290 fluorescence intensity (a.u.)
GGTTCTTGGAATCCACCGGTATTTTTGATCCATCCATCCACGGAGTCACCTAGTGCAG | 9440 fluorescence intensity (a.u.)
GTGAACAATGCCCAATTATGGTAGTAACACCCACTTTGTACGGAGTCACCTAGTGCAG | 8500 fluorescence intensity (a.u.)
CGGAGCGGGAGAGGGATAGGGAGATCGCGGGAGGGTAGAACGGAGTCACCTAGTGCAG | 9430 fluorescence intensity (a.u.)
GGCTGTTGGGTTTGTGGGCTTGTGCTAGGCGTCCCAGCTACGGAGTCACCTAGTGCAG | 17800 fluorescence intensity (a.u.)
CCATCTATATATACTGTTGTTTTCTTAATTACCATCTTGTCGGAGTCACCTAGTGCAG | 9630 fluorescence intensity (a.u.)
ATGCCTTGTGTTCGGCGAGGCCTTCGCCTTCTTGGGTCCGCGGAGTCACCTAGTGCAG | 8700 fluorescence intensity (a.u.)

Sequence | binding signal
AGGAGGAGGAGGAGGAGGAGGAGGAGGCGGTGGGAGGGATCGGAGTCACCTAGTGCAG | 14800 fluorescence intensity (a.u.)
TCTGGGTCATCCGGAGGCTCATTCGTCTCAAATTCAACATCGGAGTCACCTAGTGCAG | 8240 fluorescence intensity (a.u.)
CGTGTCCAACTTTGATTGTTCGTCTTATTTATTTTTAAAACGGAGTCACCTAGTGCAG | 9530 fluorescence intensity (a.u.)
CCTTTGTTAGACATGTGATGTACATATCAATAGTATTAATCGGAGTCACCTAGTGCAG | 8690 fluorescence intensity (a.u.)
ACTCAGTATATGATTAGTAACCTCGCTTTGGTTTACATCACGGAGTCACCTAGTGCAG | 8140 fluorescence intensity (a.u.)
TTGTATTCTTGTGCAAATGCACTGCCTAATTGGCCAGACCCGGAGTCACCTAGTGCAG | 8040 fluorescence intensity (a.u.)
CCATATCTAATATGTTTGATGGTTGGTTTTTGCGGTTGACCGGAGTCACCTAGTGCAG | 9240 fluorescence intensity (a.u.)
AAGTACCCCTTTTCGATTTTCTCTCTCTTGAACCATTTGCCGGAGTCACCTAGTGCAG | 8390 fluorescence intensity (a.u.)
CTAGCATATCTGTGTGTCTGTCTGTCTATCTATCTAATCTCGGAGTCACCTAGTGCAG | 9820 fluorescence intensity (a.u.)
TGTCCTTATCATCTTTGATCAAGTTTTTCTCTTTTCCTATCGGAGTCACCTAGTGCAG | 9480 fluorescence intensity (a.u.)
GTGTGTATATAGTATTAGTACGTTCTCCTCTACCTACCAACGGAGTCACCTAGTGCAG | 8060 fluorescence intensity (a.u.)
CTCTCTCGTTTTCCACGCGCACGCTTTCTAAAGTACTAAACGGAGTCACCTAGTGCAG | 9690 fluorescence intensity (a.u.)
TTGTGTGGATTACGTTGACTAATTAATGGCGAATTCGATCCGGAGTCACCTAGTGCAG | 11700 fluorescence intensity (a.u.)
TGAACTTATTCCTACTAGAGGCTCTAATCTTTTGGCCCAACGGAGTCACCTAGTGCAG | 9590 fluorescence intensity (a.u.)
CTGCGTTTATTTGGGTTTATTTGGGGCTGAGAGAGTACATCGGAGTCACCTAGTGCAG | 13800 fluorescence intensity (a.u.)
CGCACGTTAAAACTTGGGCTGGGACGCGAGGCGAGGGTTTCGGAGTCACCTAGTGCAG | 8140 fluorescence intensity (a.u.)
TGCCCTTGCTTTTCTACCATCATGACCTCCTCTACTCACACGGAGTCACCTAGTGCAG | 8040 fluorescence intensity (a.u.)
ATGTGGTAGGTCCTGTCGAGATTTAGTCAACTACTATTAGCGGAGTCACCTAGTGCAG | 8720 fluorescence intensity (a.u.)
TACTGAATATATTTTTGCTAACATGTTTGTTTTATATAATCGGAGTCACCTAGTGCAG | 8540 fluorescence intensity (a.u.)
CCAACCGATGACCCCGTGGTCACGCTCCACGCCATCCGCGCGGAGTCACCTAGTGCAG | 8450 fluorescence intensity (a.u.)
ACTGGTGCGACTACTTCCCGGGGCTCGCCGCCGTTGACCCCGGAGTCACCTAGTGCAG | 11000 fluorescence intensity (a.u.)
